## Screening data, single-dose tests

The chains behind the UniProt entries cited, without tags or fusion partners.
UniProt P9WFT3, whole entry: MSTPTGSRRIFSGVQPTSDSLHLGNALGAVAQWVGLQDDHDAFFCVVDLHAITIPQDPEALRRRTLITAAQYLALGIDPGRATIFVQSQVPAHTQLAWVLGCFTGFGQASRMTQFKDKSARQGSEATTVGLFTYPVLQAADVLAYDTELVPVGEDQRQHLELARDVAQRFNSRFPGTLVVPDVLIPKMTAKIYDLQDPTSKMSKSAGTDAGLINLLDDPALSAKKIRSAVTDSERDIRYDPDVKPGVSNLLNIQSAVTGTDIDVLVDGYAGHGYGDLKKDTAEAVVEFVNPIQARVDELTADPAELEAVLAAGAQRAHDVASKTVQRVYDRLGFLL

Leishmania in macrophages: 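Cell assay of Leishmania donovani living inside macrophages; the read-out is not stated. Tested at 30 µM. Higher reads as stronger inhibition (inferred: compounds with an IC50 in retests scored well above the rest). Of about 69,000 compounds tested this way, about 1,000 (1.5%) reached 50% or more in at least one test.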
MtTrpRS: 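Tryptophan-tRNA ligase, Mycobacterium tuberculosis (UniProt P9WFT3). Enzyme assay of tryptophanyl-tRNA synthetase; the read-out is not stated. Concentration: 10 µM. Direction is not recorded; retested compounds ran higher, which suggests that high means inhibition. Size under these conditions: about 65,000 compounds, about 64 of them at 50% or above in at least one test.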
T. brucei: 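Whole-parasite assay of Trypanosoma brucei over 72 hours; the read-out is not stated. Concentration: 30 µM. Higher reads as stronger inhibition (inferred: compounds with an IC50 in retests scored well above the rest). Values scatter widely below zero; nearly all retest evidence comes from the higher of the two concentrations used. Of about 64,000 compounds tested this way, about 940 (1.5%) reached 50% or more in at least one test.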

The filed quantity is “Percent Effect” (%). The record does not define 0% and 100%; most values in the screen are far below 50% and negative numbers occur (in some assays of this library far below -100). This is an unselected part of the compounds tested. A dash means the value is not listed here; it may have been measured.

{"compound": "CN1CCN(Cc2cn3c(n2)CN(Cc2cccc(F)c2)CC3)CC1.O=C(O)C(F)(F)F.O=C(O)C(F)(F)F.O=C(O)C(F)(F)F", "Leishmania in macrophages": 28.04, "T. brucei": -7.23}
{"compound": "CC(C)NC(=O)N1CCN(C(=O)NC(C)C)CC2(CNC(=O)C2)C1", "Leishmania in macrophages": 15.75, "MtTrpRS": 1.936, "T. brucei": -16.99}
{"compound": "Cc1noc(C)c1C1CCCN1C(=O)CN1CC2(CCNCC2)OC1=O", "stereo": "configuration not stated", "Leishmania in macrophages": -23.11, "MtTrpRS": -1.625, "T. brucei": -14.99}
{"compound": "O=C(NCc1ccncc1)C1CN(c2nc3ccccc3s2)CCN1", "stereo": "configuration not stated", "Leishmania in macrophages": 28.59, "MtTrpRS": -2.183, "T. brucei": 9.908}
{"compound": "COCCOCC(=O)N1C[C@@H]2CC[C@H](Oc3ccccc3Cl)[C@@H]2C1", "MtTrpRS": 8.174}
{"compound": "CCN1CCN(C(=O)c2csnn2)c2ccccc21", "Leishmania in macrophages": 29.16, "MtTrpRS": -1.037, "T. brucei": -11.67}
{"compound": "CC(C)N1CCC(C(=O)N[C@H](C(=O)O)c2cccc(F)c2F)CC1", "Leishmania in macrophages": 20.38, "MtTrpRS": -0.243, "T. brucei": -14.52}
{"compound": "c1cnc(N2CCCC(NCc3ccc(-n4ccnc4)cc3)C2)nc1", "stereo": "configuration not stated", "MtTrpRS": -3.173}
{"compound": "COc1ccc(CCNC(=O)NC2CCCC2)cc1OC", "Leishmania in macrophages": 34.84, "MtTrpRS": -1.625, "T. brucei": -3.963}
{"compound": "CCN(CC)Cc1nc2c(o1)CN(C(=O)c1ccncc1F)C2", "Leishmania in macrophages": 24.69, "MtTrpRS": -8.422, "T. brucei": -37.45}
{"compound": "Cc1nc(CN(C)C(=O)c2cc(C)sc2NC(=O)C(C)(C)C)no1", "Leishmania in macrophages": -9.947, "MtTrpRS": 1.142, "T. brucei": -2.666}
{"compound": "CS(=O)(=O)CCNC(=O)c1ccc(-c2ccco2)[nH]c1=O", "Leishmania in macrophages": -22.32, "MtTrpRS": -9.605, "T. brucei": -19.01}
{"compound": "CNC(=O)N1CCc2cc(C(=O)NCC3CC3)c(NC(C)C)nc2CC1", "Leishmania in macrophages": 16.88, "MtTrpRS": 0.241, "T. brucei": -45.29}
{"compound": "COc1ccccc1CC(=O)NC(CC(=O)O)c1ccc(C)cc1", "stereo": "configuration not stated", "Leishmania in macrophages": -0.7929, "MtTrpRS": -7.515, "T. brucei": -31.07}
{"compound": "Cc1cccnc1CN1CCN(C(=O)[C@@]23CNC[C@@H]2CN(C)C3)CC1", "MtTrpRS": -3.221}
{"compound": "CN(C)c1ccc(C(=O)N2CCN(CC(O)C(C)(C)C)CC2)nn1", "stereo": "configuration not stated", "Leishmania in macrophages": 13.32, "MtTrpRS": -2.726, "T. brucei": -7.772}
{"compound": "O=C(O)C(F)(F)F.O=C(O)C(F)(F)F.[H][C@@]12CN(Cc3ccncc3)C[C@]1([H])[C@H](OC)CCN2S(=O)(=O)N(C)C", "Leishmania in macrophages": 8.992}
{"compound": "COc1ccc(-c2nc(CN3CC(n4cc(C)cn4)C3)no2)cc1", "Leishmania in macrophages": -0.4709, "MtTrpRS": 3.728, "T. brucei": 11.55}
{"compound": "CN(C)C(=O)N1CC2(CCN(CC3CC3)CC2)c2cc(F)ccc21", "MtTrpRS": -1.536}
{"compound": "O=S(=O)(NCCN1CCCCC1Cn1cncn1)c1ccccc1", "stereo": "configuration not stated", "Leishmania in macrophages": 19.41, "MtTrpRS": 1.541, "T. brucei": 5.352}

For reference, 2 entries once more:

| Compound | Leishmania in macrophages | MtTrpRS | T. brucei |
|---|---|---|---|
| `O=C(O)C(F)(F)F.O=C(O)C(F)(F)F.[H][C@@]12CN(Cc3ccncc3)C[C@]1([H])[C@H](OC)CCN2S(=O)(=O)N(C)C` | 8.992 | - | - |
| `CCN1CCN(C(=O)c2csnn2)c2ccccc21` | 29.16 | -1.037 | -11.67 |

Data taken from ChEMBL document CHEMBL3988442, “University of Dundee, Small-Polar-MMV Screening Library” (2021).